Test system: colon cancer cell lines (RKO, Co115, HCT-116, SW48, LoVo)
Assay: Cell viability (MTT assay) of colon cancer cell lines
Type: cell-based, human
Details: HDAC2-deficient RKO cells, 24 h with 5 mM SAHA
Procedure: Cells were treated for 48 h with different concentrations of TSA (0-1000 nM). Experiments were performed in triplicate.
FIG. 5. […] Experiments were performed in triplicate.
Human colorectal and endometrial cancer cell lines were obtained from the American Type Culture Collection. HDAC inhibition treatment was developed adding 0.25 μM trichostatin A, 10 mM sodium valproate or 10 mM sodium butyrate to the culture medium for 24 hours. We obtained DNA samples from 228 human primary malignancies corresponding to colon tumors of HPNCC patients (n=47) and sporadic MSI+colon (n=127), MSI-colon (n=40), gastric (n=38) and endometrial carcinomas (n=16), as well as normal colon tissue (n=6), at the time of clinically indicated surgical procedures. Normal lymphocytes from healthy donors (n=50) was also used. DNA was extracted using standard protocols.
Cell viability was determined as previously described5. Aliquots of 1.5×10^4 cells were plated in 96-well microdilution plates. Following overnight cell adherence, experimental media containing the drugs or control media was added to appropriate wells. After 48 hours, the media was replaced by drug-free fresh media (100 μl/well) containing MTT (50 μg). […] Absorbance at 570 nm was determined on an automatized microtiter plate reader.

O=C(CCCCCCC(=O)Nc1ccccc1)NO [SAHA, suberoylanilide hydroxamic acid]
cell growth inhibition (cell viability, MTT assay): enhanced resistance
cell growth inhibition (cell viability, MTT assay) (listed as suberoylanilide hydroxamic acid (SAHA)): unable to efficiently inhibit cell growth
